# For some assays here: The hits were mostly taken out for another list; the other results follow. Records with an inconclusive call do not appear. The list shows a part of the results, in another mix than the full data. Active and inactive are the calls of the source. How the source made its calls, unless noted: active means hit-call score of the fitted dose curve at least 0.9, where 1 is the maximum; inactive means score below 0.9.
# Protein sequences, listed by entry. Tags and fused reporters are not part of them. Lines headed by an entry give the natural chain unless they say otherwise; changes in a name come on top.
# UniProt Q96RI1: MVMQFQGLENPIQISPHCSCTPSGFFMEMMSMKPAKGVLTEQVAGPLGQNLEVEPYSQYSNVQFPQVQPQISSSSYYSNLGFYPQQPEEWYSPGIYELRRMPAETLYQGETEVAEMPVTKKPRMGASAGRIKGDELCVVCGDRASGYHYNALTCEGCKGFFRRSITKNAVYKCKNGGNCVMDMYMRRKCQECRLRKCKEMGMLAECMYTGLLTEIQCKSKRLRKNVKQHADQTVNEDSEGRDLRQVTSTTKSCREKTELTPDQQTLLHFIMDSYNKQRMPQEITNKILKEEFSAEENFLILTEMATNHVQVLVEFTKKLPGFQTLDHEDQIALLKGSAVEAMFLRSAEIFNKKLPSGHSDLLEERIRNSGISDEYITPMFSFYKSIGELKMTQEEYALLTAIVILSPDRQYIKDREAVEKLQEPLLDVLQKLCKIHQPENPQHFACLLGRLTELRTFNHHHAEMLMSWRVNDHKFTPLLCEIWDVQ
# UniProt Q16656: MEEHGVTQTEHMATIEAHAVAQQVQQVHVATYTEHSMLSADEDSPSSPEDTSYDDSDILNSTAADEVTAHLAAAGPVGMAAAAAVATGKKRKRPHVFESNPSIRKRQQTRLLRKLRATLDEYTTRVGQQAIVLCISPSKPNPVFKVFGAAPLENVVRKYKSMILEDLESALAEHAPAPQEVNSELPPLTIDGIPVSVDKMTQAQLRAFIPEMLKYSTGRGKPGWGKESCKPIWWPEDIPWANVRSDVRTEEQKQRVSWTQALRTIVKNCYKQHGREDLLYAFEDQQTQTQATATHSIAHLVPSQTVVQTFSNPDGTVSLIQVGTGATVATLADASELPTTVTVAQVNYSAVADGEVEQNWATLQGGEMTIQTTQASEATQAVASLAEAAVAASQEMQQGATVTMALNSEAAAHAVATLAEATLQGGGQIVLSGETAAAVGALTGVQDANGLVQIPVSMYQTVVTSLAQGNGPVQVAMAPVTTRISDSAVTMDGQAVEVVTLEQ
# UniProt P11511: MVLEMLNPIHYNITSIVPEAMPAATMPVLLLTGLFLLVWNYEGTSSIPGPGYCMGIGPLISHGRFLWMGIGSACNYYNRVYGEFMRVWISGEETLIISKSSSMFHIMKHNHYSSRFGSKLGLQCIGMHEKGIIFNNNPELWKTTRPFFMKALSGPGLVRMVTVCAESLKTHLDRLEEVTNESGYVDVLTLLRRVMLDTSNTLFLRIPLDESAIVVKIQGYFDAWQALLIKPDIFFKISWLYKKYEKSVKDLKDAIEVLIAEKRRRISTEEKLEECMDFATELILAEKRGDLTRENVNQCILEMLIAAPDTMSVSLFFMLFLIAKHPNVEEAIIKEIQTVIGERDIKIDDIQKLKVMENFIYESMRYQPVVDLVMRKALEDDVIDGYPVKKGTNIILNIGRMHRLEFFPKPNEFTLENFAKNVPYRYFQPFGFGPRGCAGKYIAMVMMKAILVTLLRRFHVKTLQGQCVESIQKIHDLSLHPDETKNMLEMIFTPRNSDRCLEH
# UniProt P04798: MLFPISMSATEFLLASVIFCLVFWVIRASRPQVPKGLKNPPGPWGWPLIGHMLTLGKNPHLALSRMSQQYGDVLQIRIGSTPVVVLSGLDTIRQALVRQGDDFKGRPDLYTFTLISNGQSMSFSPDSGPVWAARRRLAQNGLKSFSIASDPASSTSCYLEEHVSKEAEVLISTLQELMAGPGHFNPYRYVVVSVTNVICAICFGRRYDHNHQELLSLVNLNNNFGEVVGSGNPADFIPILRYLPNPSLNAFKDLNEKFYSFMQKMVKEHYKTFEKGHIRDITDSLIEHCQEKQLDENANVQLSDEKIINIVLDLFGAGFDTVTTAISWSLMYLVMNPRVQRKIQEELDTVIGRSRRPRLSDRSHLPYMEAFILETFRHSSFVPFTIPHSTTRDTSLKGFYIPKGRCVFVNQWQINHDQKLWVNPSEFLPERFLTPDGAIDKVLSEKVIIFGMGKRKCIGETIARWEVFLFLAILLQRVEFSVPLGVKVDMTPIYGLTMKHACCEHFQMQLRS
# UniProt P08588, whole entry, looked up: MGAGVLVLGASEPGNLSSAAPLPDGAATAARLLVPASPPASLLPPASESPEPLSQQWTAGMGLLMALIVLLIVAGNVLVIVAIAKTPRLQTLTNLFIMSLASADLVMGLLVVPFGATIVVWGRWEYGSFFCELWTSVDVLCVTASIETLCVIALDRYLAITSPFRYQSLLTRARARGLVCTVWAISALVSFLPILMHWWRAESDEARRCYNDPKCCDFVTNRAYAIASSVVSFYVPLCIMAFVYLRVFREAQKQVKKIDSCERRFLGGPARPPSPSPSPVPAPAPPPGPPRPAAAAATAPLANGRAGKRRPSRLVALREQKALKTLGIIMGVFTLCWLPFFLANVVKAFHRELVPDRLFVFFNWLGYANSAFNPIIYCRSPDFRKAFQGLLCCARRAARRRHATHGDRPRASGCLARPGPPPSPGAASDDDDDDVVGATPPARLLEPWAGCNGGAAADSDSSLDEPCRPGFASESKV
# UniProt O97775: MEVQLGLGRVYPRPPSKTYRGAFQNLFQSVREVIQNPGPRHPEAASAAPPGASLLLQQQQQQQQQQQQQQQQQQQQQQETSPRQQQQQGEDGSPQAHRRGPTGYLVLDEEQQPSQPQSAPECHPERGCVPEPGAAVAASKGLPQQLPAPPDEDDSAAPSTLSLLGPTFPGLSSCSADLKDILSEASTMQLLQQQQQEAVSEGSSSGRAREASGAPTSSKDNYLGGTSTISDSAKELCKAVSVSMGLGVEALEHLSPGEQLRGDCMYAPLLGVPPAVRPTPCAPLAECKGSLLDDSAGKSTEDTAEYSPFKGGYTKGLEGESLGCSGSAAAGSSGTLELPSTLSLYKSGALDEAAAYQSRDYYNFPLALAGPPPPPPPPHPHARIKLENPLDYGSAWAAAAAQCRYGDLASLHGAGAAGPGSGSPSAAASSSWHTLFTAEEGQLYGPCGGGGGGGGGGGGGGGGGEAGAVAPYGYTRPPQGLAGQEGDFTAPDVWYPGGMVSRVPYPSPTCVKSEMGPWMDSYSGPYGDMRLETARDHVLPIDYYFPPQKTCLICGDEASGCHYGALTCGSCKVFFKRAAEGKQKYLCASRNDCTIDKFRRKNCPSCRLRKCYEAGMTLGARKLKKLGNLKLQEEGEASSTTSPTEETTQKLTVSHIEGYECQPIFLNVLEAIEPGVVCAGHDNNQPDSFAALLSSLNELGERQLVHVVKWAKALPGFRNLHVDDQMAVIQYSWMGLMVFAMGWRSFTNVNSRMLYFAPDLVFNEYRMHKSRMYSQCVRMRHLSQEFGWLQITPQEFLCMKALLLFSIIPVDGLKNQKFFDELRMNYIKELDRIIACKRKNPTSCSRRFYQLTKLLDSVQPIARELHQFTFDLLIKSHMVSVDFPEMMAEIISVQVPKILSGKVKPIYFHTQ
# UniProt Q60492, whole entry, looked up: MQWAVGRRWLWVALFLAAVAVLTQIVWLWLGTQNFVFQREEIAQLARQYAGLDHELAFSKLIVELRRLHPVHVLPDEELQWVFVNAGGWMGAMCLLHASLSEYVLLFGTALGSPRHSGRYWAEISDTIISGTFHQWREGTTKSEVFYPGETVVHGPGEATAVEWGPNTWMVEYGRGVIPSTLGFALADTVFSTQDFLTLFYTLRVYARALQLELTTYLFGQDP
# Key:
# [1] = APR_HepG2_CellCycleArrest_24hr: Apredica 24-hour HepG2 Assay for Cell Cycle Arrest (AID 2282905); conditions: imaging, actives raise or lower the signal;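 further: cell cycle arrest scored as ratio of 2N to 4N nuclear DNA content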
# Summary of the method: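 After 24 h exposure at 0.39–200 uM in 0.5% DMSO, fixed cells received Hoechst 33342 staining. Imaging quantified per-nucleus DNA content; gain or loss fitted against DMSO controls.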
# [2] = APR_HepG2_NuclearSize_24hr: Apredica 24-hour HepG2 Assay for Nuclear Size (AID 2282907); conditions: high-content imaging, actives raise or lower the signal
# Summary of the method: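 Nuclear size from Hoechst 33342-stained, formaldehyde-fixed HepG2 nuclei imaged by high-content microscopy, after 24 h dosing at ten concentrations from 0.39 to 200 uM in 0.5% DMSO; gain or loss relative to DMSO baseline.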
# [3] = APR_HepG2_MicrotubuleCSK_24hr: Apredica 24-hour HepG2 Assay for Microtubule CSK Stabilty (AID 2282909); conditions: HepG2 microtubule cytoskeleton imaging, actives raise or lower the signal
# Summary of the method: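 Fixed HepG2 cells were stained for alpha-tubulin and imaged after 24 hr exposure to ten concentrations spanning 0.39–200 uM in 0.5% DMSO. Signal change was fitted in both directions relative to DMSO; taxol was the positive control.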
# [4] = APR_HepG2_CellCycleArrest_72hr: Apredica 72-hour HepG2 Assay for Cell Cycle Arrest (AID 2282914); conditions: high-content imaging, actives raise or lower the signal
# Summary of the method: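 HepG2, 72 hr exposure, 10-point 0.39–200 uM, duplicate, 0.5% DMSO final. Fix 3.7% formaldehyde 30 min RT, Triton X-100 0.5%, Hoechst 33342 2 ug/mL. ArrayScan 20x, six fields/well; DNA content per nucleus; bidirectional fit vs DMSO.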
# [5] = APR_HepG2_MicrotubuleCSK_72hr: Apredica 72-hour HepG2 Assay for Microtubule CSK Stabilty (AID 2282919); conditions: HepG2 microtubule cytoskeleton, high-content imaging, actives raise or lower the signal
# Summary of the method: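 High-content imaging of alpha-tubulin staining in fixed HepG2 cells after 72 hr treatment with ten concentrations from 0.39 to 200 uM (0.5% DMSO). Fitting was bidirectional against DMSO; taxol served as positive control.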
# [6] = APR_HepG2_NuclearSize_72hr: Apredica 72-hour HepG2 Assay for Nuclear Size (AID 2282925); conditions: high-content imaging, actives raise or lower the signal
# Summary of the method: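 Nuclear size was read by high-content imaging of Hoechst 33342 stain after formaldehyde fixation. Compounds ran 72 h on HepG2 at 0.39 to 200 uM, with final DMSO 0.5% v/v. Curves fitted both directions relative to DMSO control.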
# [7] = target: Bile acid receptor (Homo sapiens) (UniProt Q96RI1); experiment: ATG_IR1_CIS: Attagene CIS-FACTORIAL HepG2 Assay for human Nuclear Receptor Subfamily 1 Group H Member 4 (NR1H4), IR1 submotif (AID 2282946); conditions: IR1 reporter transcription, actives raise or lower the signal
# Summary of the method: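 HepG2 cells transiently transfected with multiplexed cis-element reporter units read endogenous transcription factor activity. After 24 h compound exposure, reporter mRNA was quantified by RT-PCR, fluorescent labelling, HpaI digestion and capillary electrophoresis; bidirectional fitting versus DMSO baseline.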
# [8] = target: Nuclear respiratory factor 1 (Homo sapiens) (UniProt Q16656); experiment: ATG_NRF1_CIS: Attagene CIS-FACTORIAL HepG2 Assay for human Nuclear Respiratory Factor 1 (NRF1) Orphan Gene (AID 2282987); conditions: HepG2 NRF1 cis-element reporter, Attagene multiplex; actives raise or lower the signal
# Summary of the method: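 Endogenous NRF1-driven reporter transcription measured in transiently transfected human HepG2 liver cells. Readout: reporter mRNA by RT-PCR and capillary electrophoresis with fluorescence detection, 24 h post-dosing. Gain or loss of signal fitted relative to DMSO baseline.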
# [9] = ATG_NFI_CIS: Attagene CIS-FACTORIAL HepG2 Assay for human Nuclear Factor I (NFI) (AID 2282989); conditions: HepG2 cis-regulatory reporter, NFI response element transcription; actives raise or lower the signal
# Summary of the method: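 Cells: human liver HepG2, transiently transfected with promoter-regulated reporter transcription units. Exposure 24 h. Detection: fluorescent RT-PCR products separated by capillary electrophoresis, normalised to DMSO negative control.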
# [10] = ATG_NF_kB_CIS: Attagene CIS-FACTORIAL HepG2 Assay for human Nuclear Factor Kappa B (NF-kB) (AID 2282991); conditions: HepG2 Attagene cis-factorial NF-kB reporter mRNA; actives raise or lower the signal
# Summary of the method: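 Read-out: reporter transcript levels quantified by RT-PCR plus capillary electrophoresis of 6-FAM-labelled, HpaI-cut fragments. Transfected HepG2 cells, 24 h compound exposure, endogenous NF-kB-driven cis element; gain or loss scored versus DMSO.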
# [11] = target: human CYP19A1, CYP19A1 (gene 1588) (UniProt P11511); experiment: NVS_ADME_hCYP19A1: NovaScreen (NVS) CYP450-related Enzyme Activity (ADME) Assay for human CYP19A1 (AID 2283098; active means hit-call score of the fitted dose curve at least 0.9, where 1 is the maximum)
# Summary of the method: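 Primary testing was in duplicate at a single 10 uM concentration, with actives followed up in concentration-response series. Fluorescence read-out of recombinant enzyme activity at 0.5 h, cell-free. Acetonitrile was the negative-control baseline.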
# [12] = target: human CYP1A1, CYP1A1 (gene 1543) (UniProt P04798); experiment: NVS_ADME_hCYP1A1: NovaScreen (NVS) CYP450-related Enzyme Activity (ADME) Assay for human CYP1A1 (AID 2283100; active means hit-call score of the fitted dose curve at least 0.9, where 1 is the maximum)
# Summary of the method: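 Read-out: fluorescence intensity from enzymatic turnover of substrate by recombinant CYP1A1, loss of signal indicating inhibition. Incubation 1 h post-dose. Primary single-point 10 uM in duplicate; actives rerun singly with top concentration 20 uM.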
# [13] = target: human Adrenergic, Beta 1 Receptor (Adrb1), ADRB1 (gene 153) (UniProt P08588); experiment: NVS_GPCR_hAdrb1: NovaScreen (NVS) G Protein-Coupled Receptor Assay for human Adrenergic, Beta 1 Receptor (Adrb1) (AID 2283258; active means hit-call score of the fitted dose curve at least 0.9, where 1 is the maximum)
# Summary of the method: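 Membranes/protein extracted from human neuroepithelioma cells, radioligand competition binding read by filtration and scintillation 2 h post-dose. Single 25 uM duplicate screen, then concentration-response follow-up; DMSO as negative control.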
# [14] = tested on: 5-hydroxytryptamine receptor 2C (pig); experiment: NVS_GPCR_p5HT2C: NovaScreen (NVS) G Protein-Coupled Receptor Assay for pig Serotonin, 5-Hydroxytryptamine Receptor 2C (5HT2C) (AID 2283288; active means hit-call score of the fitted dose curve at least 0.9, where 1 is the maximum)
# Experimental: NVS_GPCR_p5HT2C is a biochemical, single-readout assay that uses extracted gene-proteins from Pig choroid plexus membranes in a tissue-based cell-free assay. Measurements were taken 1 hour after chemical dosing in a 48-well plate.NVS_GPCR_p5HT2C is one of one assay component(s) measured or calculated from the NVS_GPCR_p5HT2C assay. It is designed to make measurements of radioligand binding, a form of binding reporter, as detected with scintillation counting signals by Filter-based radiodetection technology.Data from the assay component NVS_GPCR_p5HT2C was analyzed into 1 assay endpoint. This assay endpoint, NVS_GPCR_p5HT2C, was analyzed in the positive analysis fitting direction relative to DMSO as the negative control and baseline of activity. Using a type of binding reporter, loss-of-signal activity can be used to understand changes in the binding as they relate to the gene HTR2C. Furthermore, this assay endpoint can be referred to as a primary readout, because the performed assay has only produced 1 assay endpoint. To generalize the intended target to other relatable targets, this assay endpoint is annotated to the gpcr intended target family, where the subfamily is rhodopsin-like receptor. […]
# [15] = target: chimpanzee Androgen Receptor (AR), AR (gene 747460) (UniProt O97775); experiment: NVS_NR_cAR: NovaScreen (NVS) Nuclear Receptor Binding Assay for chimpanzee Androgen Receptor (AR) (AID 2283346; active means hit-call score of the fitted dose curve at least 0.9, where 1 is the maximum;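 further: radioligand displacement from AR measured by scintillation counting in a cell-free assay; a loss of bound radioligand signal versus DMSO counts as binding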)
# Summary of the method: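 Cell-free competition binding with insect-cell (Sf9/Sf21) extracted chimpanzee AR; scintillation signal from lysate at 72 h. Screened in duplicate at 25 uM, then concentration-response for actives; fitting relative to DMSO.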
# [16] = target: Bile acid receptor (Homo sapiens) (UniProt Q96RI1); experiment: NVS_NR_hFXR_Antagonist: NovaScreen (NVS) Nuclear Receptor Binding Assay for human Farnesoid X Receptor Antagonism (FXR) (AID 2283350; active means hit-call score of the fitted dose curve at least 0.9, where 1 is the maximum)
# Summary of the method: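 Antagonist-format time-resolved FRET binding assay with extracted human receptor protein, read 1 hour after compound addition. Compounds first screened at 25 uM in duplicate, then actives tested in concentration series, with loss of signal relative to DMSO.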
# [17] = target: guinea pig Sigma Receptor, Non-selective Binding, SIGMAR1 (gene 100135589) (UniProt Q60492); experiment: NVS_OR_gSIGMA_NonSelective: NovaScreen (NVS) Nuclear Receptor Binding Assay for guinea pig Sigma Receptor, Non-selective Binding (AID 2283367; active means hit-call score of the fitted dose curve at least 0.9, where 1 is the maximum)
smiles,measurement,setting,value
CCCCc1oc2ccccc2c1C(=O)c1cc(I)c(OCCN(CC)CC)c(I)c1,outcome,[1],inactive
same,outcome,[2],inactive
same,outcome,[3],inactive
same,outcome,[4],inactive
same,outcome,[5],inactive
same,outcome,[6],inactive
same,AC50,[7],active: 66.8 µM
same,AC50,[8],active: 35.3 µM
same,AC50,[9],active: 139 µM
same,outcome,[10],inactive
same,outcome,[11],inactive
same,outcome,[12],inactive
same,AC50,[13],active: 7.74 µM
same,AC50,[14],active: 18.9 µM
same,AC50,[15],active: 18.9 µM
same,outcome,[16],inactive
same,AC50,[17],active: 0.402 µM

# Source: PubChem BioAssay (EPA / NIEHS)
